Assay results: the supplement of paper PMC10331698
± gives the standard deviation of the averaged measurements. Small differences around the control level are noise.

Key:
Test in all cases: level (log10 ratio to DMSO vehicle control); higher = higher biomarker level / cell amount than vehicle control
[1] = compound: C=C(C)C(=O)OCCC(F)(F)C(F)(F)C(F)(F)C(F)(F)C(F)(C(F)(F)F)C(F)(F)F [(Perfluoro-5-methylhexyl)ethyl 2-methylprop-2-enoate]; settings: in DMSO
Protocol: (§1)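 BioMAP Diversity Plus panel of 12 human primary cell co-culture systems (3C, 4H, LPS, SAg, BT, BF4T, BE3C, CASM3C, HDF3CGF, KF3CT, MyoF, Mphg). Compounds were added 1 h before stimulation and left for 24 h (MyoF 48 h; BT 72 h for soluble read-outs or 6 d for IgG). Biomarkers were read by ELISA, cytotoxicity by SRB, PBMC viability and proliferation by Alamar Blue. Each well value was divided by the mean of 8 DMSO control wells on the same plate and log10 transformed; duplicate blinded samples were tested at 4 concentrations.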

[2] = compound: O=C(O)CCC(F)(F)C(F)(F)C(F)(F)C(F)(F)C(F)(F)F [2H,2H,3H,3H-Perfluorooctanoic acid]; settings: 2200 nM; in DMSO
Protocol: as §1

[3] = compound: COC(=O)CCC(F)(F)C(F)(F)C(F)(F)C(F)(F)F [Methyl 2H,2H,3H,3H-perfluoroheptanoate]; settings: 2200 nM; in DMSO
Protocol: as §1

[4] = compound: O=S(=O)(O)C(F)(F)C(F)(F)OC(F)(F)C(F)(F)F [Perfluoro(2-ethoxyethane)sulfonic acid]; settings: 2200 nM; in DMSO
Protocol: as §1

[5] = compound: O=S(=O)(O)CCC(F)(F)C(F)(F)C(F)(F)C(F)(F)C(F)(F)C(F)(F)F [6:2 Fluorotelomer sulfonic acid]; settings: in DMSO
Protocol: as §1

[6] = compound: FC(F)(F)C(F)(F)C(F)(F)C(F)(F)C(F)(F)CCI [1-Iodo-1H,1H,2H,2H-perfluoroheptane]; settings: 2200 nM; in DMSO
Protocol: as §1

[7] = compound: O=C(O)C(F)(F)C(F)(F)C(=O)O [Tetrafluorosuccinic acid]; settings: 2200 nM; in DMSO
Protocol: as §1

[8] = compound: C=C(C)C(=O)OCCC(F)(F)C(F)(F)C(F)(F)C(F)(F)C(F)(F)C(F)(F)C(F)(F)C(F)(F)F [8:2 Fluorotelomer methacrylate]; settings: in DMSO
Protocol: as §1

[9] = compound: NC(=O)C(F)(F)C(F)(F)C(F)(F)C(F)(F)C(N)=O [Octafluoroadipamide]; settings: 2200 nM; in DMSO
Protocol: as §1

[10] = compound: NS(=O)(=O)C(F)(F)C(F)(F)C(F)(F)C(F)(F)C(F)(F)C(F)(F)F [Perfluorohexanesulfonamide]; settings: 2200 nM; in DMSO
Protocol: as §1

[11] = compound: O=C(O)C(F)(F)C(F)(F)C(F)(F)C(F)(F)C(F)(F)C(F)(F)C(F)(F)C(F)(F)Cl [9-Chloro-perfluorononanoic acid]; settings: in DMSO
Protocol: as §1

[12] = compound: OCCC(F)(F)C(F)(F)C(F)(F)C(F)(F)F [4:2 Fluorotelomer alcohol]; settings: 2200 nM; in DMSO
Protocol: as §1

[13] = compound: NC(=O)C(F)(F)C(F)(F)C(F)(F)C(F)(F)F [Nonafluoropentanamide]; settings: 2200 nM; in DMSO
Protocol: as §1

[14] = compound: OC(C(F)(F)F)(C(F)(F)F)C(O)(C(F)(F)F)C(F)(F)F [Perfluoropinacol]; settings: in DMSO
Protocol: as §1

Test System	level (log10) ([1]; 740 nM)	level (log10) ([1]; 2200 nM)	level (log10) ([1]; 6700 nM)	level (log10) ([1]; 20000 nM)	level (log10) [2]	level (log10) [3]	level (log10) [4]	level (log10) ([5]; 2200 nM)	level (log10) ([5]; 6700 nM)	level (log10) ([5]; 20000 nM)	level (log10) ([5]; 60000 nM)	level (log10) [6]	level (log10) [7]	level (log10) ([8]; 740 nM)	level (log10) ([8]; 2200 nM)	level (log10) [9]	level (log10) [10]	level (log10) ([11]; 2200 nM)	level (log10) ([11]; 6700 nM)	level (log10) ([11]; 20000 nM)	level (log10) [12]	level (log10) [13]	level (log10) ([14]; 2200 nM)	level (log10) ([14]; 6700 nM)	level (log10) ([14]; 20000 nM)
LPS:CCL2/MCP-1	0.022 ± 0.037	0.0105 ± 0.0064	0.009 ± 0.021	0.0115 ± 0.028	0.013 ± 0.0099	0.0085 ± 0.029	0.013 ± 0.0085	0.015	0.0095 ± 0.0021	0.037 ± 0.018	0.056 ± 0.037	0.001 ± 0.011	-0.0105 ± 0.0064	0.023 ± 0.017	0.0065 ± 0.005	0.0155 ± 0.035	0.003 ± 0.038	0.011 ± 0.035	0.005 ± 0.038	0.006 ± 0.0028	-0.024 ± 0.064	0.004 ± 0.0099	0.006 ± 0.021	0.0205 ± 0.00071	-0.103 ± 0.0078
CASM3C:CD141/Thrombomodulin	-0.0165 ± 0.046	-0.0525 ± 0.066	-0.0185 ± 0.069	0.0165 ± 0.098	-0.006 ± 0.072	-0.036 ± 0.0071	0.0205 ± 0.015	0.0155 ± 0.067	-0.015 ± 0.037	-0.0175 ± 0.063	-0.033 ± 0.021	0.012 ± 0.025	-0.0375 ± 0.0092	0.015 ± 0.0071	-0.0265 ± 0.032	-0.0045 ± 0.036	-0.0465 ± 0.032	0.012 ± 0.017	-0.0175 ± 0.022	-0.0225 ± 0.025	0.0295 ± 0.039	0.0125 ± 0.015	0.012 ± 0.052	-0.0085 ± 0.021	0.0575 ± 0.0035
BF4T:IL-1alpha	-0.003 ± 0.0042	-0.011 ± 0.013	-0.0155 ± 0.021	-0.014 ± 0.03	0.006 ± 0.02	0.0135 ± 0.025	0.0105 ± 0.021	0.01 ± 0.023	0.006 ± 0.0085	0.0005 ± 0.0092	0.023 ± 0.018	-0.0085 ± 0.012	0.04 ± 0.038	0.0005 ± 0.023	0.0035 ± 0.012	0.0135 ± 0.025	0.006 ± 0.0071	-0.0015 ± 0.005	0.0205 ± 0.0035	-0.023 ± 0.011	-0.0015 ± 0.029	-0.011 ± 0.011	0.0085 ± 0.022	0.0025 ± 0.012	-0.025 ± 0.0057
3C:SRB	-0.0005 ± 0.005	0.006 ± 0.0028	-0.008 ± 0.0042	-0.0175 ± 0.0078	-0.0045 ± 0.016	0.013 ± 0.024	-0.0195 ± 0.013	0.002	0.001 ± 0.0099	0.002 ± 0.0057	-0.0045 ± 0.028	-0.007 ± 0.0028	-0.005 ± 0.0071	-0.0045 ± 0.00071	-0.0135 ± 0.0092	-0.0245 ± 0.026	-0.004 ± 0.0028	0.0005 ± 0.0078	-0.0005 ± 0.005	-0.0165 ± 0.0035	0.0025 ± 0.0035	0.0015 ± 0.0092	-0.005 ± 0.011	-0.0665 ± 0.013	-0.188 ± 0.0028
SAg:CXCL8/IL-8	0.015 ± 0.0071	0.077 ± 0.013	0.0115 ± 0.012	0.0405 ± 0.079	0.0065 ± 0.076	0.0195 ± 0.057	0.0325 ± 0.0021	0.017 ± 0.045	-0.012 ± 0.025	0.0325 ± 0.039	0.064 ± 0.03	-0.008 ± 0.041	-0.016 ± 0.041	0.0025 ± 0.13	-0.0325 ± 0.073	0.0215 ± 0.084	-0.0015 ± 0.14	0.024 ± 0.0057	0.0125 ± 0.0078	0.0445 ± 0.0092	0.0075 ± 0.039	0.016 ± 0.0085	0.043 ± 0.055	0.0725 ± 0.029	-0.139 ± 0.041
lMphg:IL-1alpha	0.018 ± 0.018	0.0205 ± 0.0078	0.016 ± 0.018	0.0385 ± 0.026	0.0225 ± 0.063	0.026 ± 0.042	-0.0115 ± 0.025	-0.001 ± 0.0099	0.0395 ± 0.05	0.0235 ± 0.035	0.0215 ± 0.039	0.038 ± 0.037	0.018 ± 0.021	0.0115 ± 0.079	0.0215 ± 0.044	0.0125 ± 0.067	0.006 ± 0.071	0.005 ± 0.065	0.014 ± 0.027	0.0635 ± 0.046	-0.0155 ± 0.016	0.003 ± 0.044	0.0555 ± 0.049	0.103 ± 0.021	0.149 ± 0.067
MyoF:TIMP-1	-0.022 ± 0.031	-0.0285 ± 0.0035	-0.031 ± 0.023	-0.024 ± 0.0057	-0.0515 ± 0.05	-0.0145 ± 0.073	-0.038 ± 0.025	-0.0535 ± 0.033	-0.032 ± 0.052	0.031 ± 0.042	0.097 ± 0.011	-0.006 ± 0.0057	-0.0075 ± 0.0021	-0.0335 ± 0.0035	-0.014 ± 0.062	0.031 ± 0.021	0.0305 ± 0.033	-0.0335 ± 0.043	-0.0445 ± 0.063	-0.006 ± 0.057	-0.0025 ± 0.06	-0.0205 ± 0.0078	-0.036 ± 0.0099	0.006 ± 0.016	-0.021 ± 0.0028
LPS:CD40	0.079 ± 0.1	0.0345 ± 0.11	0.07 ± 0.038	-0.0015 ± 0.016	0.0295 ± 0.049	-0.0075 ± 0.087	0.046 ± 0.047	0.031 ± 0.0071	0.025 ± 0.048	0.0165 ± 0.037	-0.015 ± 0.024	0.072 ± 0.059	-0.0205 ± 0.028	0.002 ± 0.014	0.024 ± 0.042	-0.0335 ± 0.016	-0.008 ± 0.073	0.028 ± 0.054	0.02 ± 0.064	0.055 ± 0.0071	-0.0385 ± 0.0035	-0.032 ± 0.0028	-0.022 ± 0.031	-0.0285 ± 0.073	-0.16 ± 0.03
4H:CD106/VCAM-1	0.001 ± 0.011	-0.003 ± 0.0099	-0.012 ± 0.016	-0.0005 ± 0.005	0.0235 ± 0.023	0.005 ± 0.0085	-0.004 ± 0.038	0.0185 ± 0.0064	-0.0415 ± 0.0078	-0.0245 ± 0.0021	-0.0625 ± 0.033	0.024 ± 0.071	0.0205 ± 0.047	-0.013 ± 0.03	-0.011 ± 0.023	0.003 ± 0.024	-0.012 ± 0.018	-0.032 ± 0.016	-0.0145 ± 0.0078	0.0035 ± 0.013	0.017 ± 0.0028	-0.0125 ± 0.00071	-0.013 ± 0.0014	-0.043 ± 0.018	-0.22 ± 0.02
BF4T:CXCL8/IL-8	0.0525 ± 0.023	0.0725 ± 0.046	0.067 ± 0.037	0.035 ± 0.027	0.0585 ± 0.019	0.0305 ± 0.0064	0.004 ± 0.031	0.019 ± 0.033	0.069 ± 0.058	0.0625 ± 0.044	0.0805 ± 0.057	0.0145 ± 0.019	0.019 ± 0.025	-0.0055 ± 0.021	-0.008 ± 0.018	-0.008 ± 0.028	0.0005 ± 0.11	0.058 ± 0.058	0.112 ± 0.042	0.0875 ± 0.015	0.0475 ± 0.059	0.0465 ± 0.021	0.078 ± 0.1	0.081 ± 0.024	0.0865 ± 0.032
